Yeast fitness data for 167 variants are collected here from the RNAGym collection of RNA variant scans (doi:10.1126/science.aae0568).

This sample is rich in variants without activity. Some results are limits rather than exact numbers.

The labels stand for the following.
B1: tRNA (parent)
chain: GUUCCGUUGGCGUAAUGGUAACGCGUCUCCCUCCUAAGGAGAAGACUGCGGGUUCGAGUCCCGUACGGAACG

The data set covers variants of B1. The data set can be described thus: yeast fitness relative to wild type (ratio to wild type); higher = fitter; tRNA-Arg(CCU), competitive growth, 37 C, YPD. In a few lines: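 Variants of the tRNA-Arg(CCU) gene were chemically synthesised with a 3% per-site mutation rate across 69 sites and placed at the native genomic locus in Saccharomyces cerevisiae. Six parallel replicates of the pooled strains were competed in YPD at 37°C for 24 hours, and gene amplicons from the start and end populations were read by 100-nucleotide paired-end sequencing. Darwinian fitness relative to wild type was derived from changes in genotype frequencies. Genotypes required ≥ 100 starting reads, and estimates < 0.5 were set to 0.5.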
As for G6A A45C C49A C55U, the yeast fitness was no more than 0.5. For the variant U8C C11G U13C A65G A69C, the yeast fitness is no more than 0.5.

With U26A A70G, the yeast fitness came out at 0.924.

Take C11U U54C G56A: the yeast fitness is no more than 0.5.

In the case of C5G G6C C30A, the yeast fitness was no more than 0.5.

Turning to U3A A21G U28A A42C C55A A69U, the yeast fitness was no more than 0.5. For the variant G6A G18A G23C C24G C46G, the yeast fitness is no more than 0.5. With U16C C22U A37U C49A C62U C66U, the yeast fitness is no more than 0.5.

As for U2C U3C G12A C34U, the yeast fitness was no more than 0.5. As to C4G A14C A42G G67A, the yeast fitness was no more than 0.5. Consider C24U C30A A37G, for which the yeast fitness stood at 0.593. For the variant U2A U19G C29G C62U, the yeast fitness is no more than 0.5. C29A A37U A70U: the yeast fitness is no more than 0.5. Consider C4G C27G C34G G51A, for which the yeast fitness is no more than 0.5. As to G12A G51C, the yeast fitness came out at 0.662. As for G6C G17A A36U C46A C66A, the yeast fitness stood at 0.512. As for U7A C34A G56C G68C, the yeast fitness is no more than 0.5.

In the case of G17C U19A C24G U26A C34U, the yeast fitness was no more than 0.5.

On to C11G C55G, for which the yeast fitness is 0.594. For the variant U19A A21G C29G C46A, the yeast fitness is no more than 0.5. Consider C30G A37U G38A A57C, for which the yeast fitness was no more than 0.5.

A40U U64C: the yeast fitness amounted to 1.08.

Take G17C U54A: the yeast fitness was no more than 0.5. Then C22G G38A C55A, with no more than 0.5; and U7A C11A G18A C31U C34U U47C C49A A57U, with no more than 0.5; and A15G A42G U53G, with no more than 0.5.

Regarding C24U A45G C46G C55G A70C, the yeast fitness was no more than 0.5. For U7G A45C G51C U53C the value was no more than 0.5; for U13C C49G U59A, no more than 0.5; for G17C U53G C62G, no more than 0.5. In the case of U8C G12A A42C C55U, the yeast fitness was no more than 0.5. Turning to A20C U47A G48C, the yeast fitness came to 0.526. For A15G G56A C60G the value was no more than 0.5; for U28G C30G A40C A42U C66U, no more than 0.5. For U8C A42G C55U A65C the value was no more than 0.5; for U7C A15C A20G A70C, no more than 0.5; for U7A C22U G39C C66U, no more than 0.5. For A21G G50C G52C the value was no more than 0.5.

Regarding G9C U28A C29A U35G A70C, the yeast fitness was no more than 0.5. On to U28C G41C A42G C49A, for which the yeast fitness is no more than 0.5. Regarding C5G C34G A70C, the yeast fitness was no more than 0.5. For C27G A45C C55G G58C the value was no more than 0.5. In the case of A20G A21C U28C C61A A69U, the yeast fitness is no more than 0.5.

A42U C62A G67C: the yeast fitness was no more than 0.5. As for U7G C11U C27A A36C A42U U64G, the yeast fitness was no more than 0.5.

Take C22G G41A A57C: the yeast fitness is no more than 0.5. In the case of C5U C11U C29U C30G A70C, the yeast fitness was no more than 0.5.

With C5A G51C G63C A65C, the yeast fitness was no more than 0.5. For U32A C33G C61U C62U the value was no more than 0.5; for G9A G10A C31G G48A C55A G58C, no more than 0.5. For U13A C22A A36U G68C, the yeast fitness is no more than 0.5.

Take A21C C46G C49G C62U: the yeast fitness is no more than 0.5. Turning to U28G C30G A37G A40C A42U, the yeast fitness is no more than 0.5. In the case of C24G A36U A37C, the yeast fitness was no more than 0.5. For U8G A15U A20C A69C, the yeast fitness was no more than 0.5. Then U2A U8C G12A A42U, with no more than 0.5; and A15U C34G C55U, with no more than 0.5. Then A15U C33U C62G C66G, with no more than 0.5. With A14G G39C C46G C49G, the yeast fitness is no more than 0.5.

As for G12A A21G C49G A70C, the yeast fitness is no more than 0.5. As to U3C G38C C62G, the yeast fitness is no more than 0.5. As to U26C C29U A43G, the yeast fitness was no more than 0.5. As to C30A G52A, the yeast fitness came to 0.813. U16A C24G C60A C61G: the yeast fitness is no more than 0.5.

As for A43U C49G A57G, the yeast fitness is no more than 0.5. Regarding G10A A45C G68A, the yeast fitness was no more than 0.5. U8A C29G C34A A36G A43C U53C: the yeast fitness was no more than 0.5. Consider C11G C27U U32A C60U A70C, for which the yeast fitness was no more than 0.5.

Take C4G G6A G18C U26A G48A: the yeast fitness was no more than 0.5. In the case of G23A A57C C60A, the yeast fitness is no more than 0.5. Turning to C5G C31A C66G, the yeast fitness was no more than 0.5. For U2A A21C C29U U59A the value was no more than 0.5; for G38A G67U A70U, no more than 0.5; for C4G A21C A43U C55A, no more than 0.5. Take G12A C30U G39C: the yeast fitness is no more than 0.5. On to U8A A14C G18C A20C G25C U28A C60A A65U, for which the yeast fitness is no more than 0.5. Consider G25C A43U A45G U47C, for which the yeast fitness was no more than 0.5.

C5U C22G A45U C55A: the yeast fitness is no more than 0.5.

C11U A42G C60U A69G A70U: the yeast fitness was no more than 0.5. As for G9C U19C C31A C60G A65U, the yeast fitness is no more than 0.5. With G10U G17A U32C A45C, the yeast fitness was no more than 0.5. For G17C A20U C66A, the yeast fitness was no more than 0.5.

Take G6A C22G C55G: the yeast fitness was no more than 0.5. For U28G G39A C49A the value was no more than 0.5; for A15C C24A, no more than 0.5. For the variant G6A G41C A42G A43G C49U, the yeast fitness was no more than 0.5. For the variant U2A U47A A65C, the yeast fitness was no more than 0.5. Then U3C A20U C61G A70G, with no more than 0.5; and C5U U8A A42G A69C, with no more than 0.5. In the case of C5G U13G C29U A40G C60U U64C A65G, the yeast fitness is no more than 0.5. Then G6A A15U C31G U53A C55U A57C C60G G67C, with no more than 0.5.

For the variant A15U C27G U28C C62G, the yeast fitness came to 0.534. For C4U A37G G39C C61U the value was no more than 0.5; for C11U G18A C62A A70C, no more than 0.5. For the variant G17A C27U A36C C55G, the yeast fitness was no more than 0.5. With C11A U13A A20G, the yeast fitness was 0.561. With C5U C29G G56C G63C, the yeast fitness was no more than 0.5. With C4A U32C C49U C55U, the yeast fitness was no more than 0.5.

Regarding U8A G12A C33U A65U, the yeast fitness came out at 0.562. Take G12A C24A A37U C60A C66U: the yeast fitness is no more than 0.5. As for G9C U26G C55A, the yeast fitness is no more than 0.5. For U7A G17A G63C, the yeast fitness is no more than 0.5. Turning to U7C A37C A40C A45U A57C, the yeast fitness was found to be 0.573. As to A37C C49U G52A U53A, the yeast fitness was no more than 0.5. As to G10C C22U C61U, the yeast fitness was 0.518.

As to C55A C61A, the yeast fitness is 0.579. For A15G G23C G38C C49U the value was no more than 0.5. For the variant C11U C34U G41A A45G, the yeast fitness is no more than 0.5. In the case of U7A U16A A21G C29G C34A A65U C66U, the yeast fitness was no more than 0.5. For the variant G10A C31G C46G A57C, the yeast fitness is no more than 0.5. Consider U7A C29U A36U A43G, for which the yeast fitness is no more than 0.5.

On to C4U C33A A40U G68A, for which the yeast fitness is no more than 0.5. G17C A21G C61A C62U: the yeast fitness is no more than 0.5. As to C22G C24U C29U A42U, the yeast fitness was no more than 0.5. As to C33G A42G G52A C62A A70U, the yeast fitness was 0.589. Turning to G6A A14C C34G A57U, the yeast fitness was no more than 0.5. Consider C30U A40C A42C C49U G68U, for which the yeast fitness is no more than 0.5. As to G18C C33U A37U, the yeast fitness is no more than 0.5. For C4G G10A U13A U26G C27G C29U C33U C55U C61G the value was no more than 0.5; for G17A A20G U28A U35A A70U, no more than 0.5; for U2C C24U G44C, no more than 0.5.

For U3A C29U C31A A40C C66U, the yeast fitness is no more than 0.5. Take A21U C27G: the yeast fitness is no more than 0.5. In the case of C5A A14U A21C C61U, the yeast fitness was no more than 0.5. Take A20U C33G U35C: the yeast fitness was no more than 0.5. Regarding C24A C31A A43U, the yeast fitness was no more than 0.5. On to U8C U28A, for which the yeast fitness turned out to be 0.901. C31G C34U G67C: the yeast fitness was no more than 0.5. As for U3A G18C C22U G41C C60G, the yeast fitness is no more than 0.5. Then C30U A42U A43C A70C, with no more than 0.5; and C22U G52A C55A A69C, with no more than 0.5; and C4U C11U C22G C61A, with no more than 0.5. As for C33A C55G, the yeast fitness stood at 0.564. For the variant C30A C31U C55G, the yeast fitness was no more than 0.5. With C5G A14C A37G C62G A69U, the yeast fitness is no more than 0.5. Turning to U2C C11A C62G G68A, the yeast fitness is no more than 0.5. Turning to G23A C27G G56A, the yeast fitness is no more than 0.5. Then U26G G44A C62U A70C, with no more than 0.5; and G12A U19C C33U C34U G38C, with no more than 0.5. Turning to C11A C55U G63A, the yeast fitness is no more than 0.5. In the case of G6A U19G U28A A42U C60U, the yeast fitness is no more than 0.5. For G10A C24G C62U A65G the value was no more than 0.5; for G10A G25C C49G C66G, no more than 0.5. As to G6A U13G A45C C49U, the yeast fitness was no more than 0.5.

For the variant U3C A20G C29G C55U A65G A69C, the yeast fitness is no more than 0.5. Turning to U13C A20G C46A C62U A70U, the yeast fitness was no more than 0.5. For C31A G50C A57U the value was no more than 0.5; for G18A C31U G41A, 0.647. In the case of G18A C46U U59C G68A, the yeast fitness amounted to 0.53. Turning to C11A G23C C49G U53G A57G, the yeast fitness was no more than 0.5.

As to U3C C24U A36C, the yeast fitness was no more than 0.5.

On to G25C G52A U54G A65C, for which the yeast fitness was no more than 0.5. In the case of C4A A20U C34G, the yeast fitness was no more than 0.5. Then A37U C55A A69C, with no more than 0.5. Take G9A C33U A36U C62U: the yeast fitness was no more than 0.5.

As for U19G C22U A70U, the yeast fitness amounted to 0.746. In the case of C4U A14U C33U C34U G38A G51A C55A A65U, the yeast fitness was no more than 0.5.

Regarding G6A C33U G48A, the yeast fitness is no more than 0.5. On to C11A C46U G48A C55U U59A, for which the yeast fitness was no more than 0.5. C11G U32C C33G: the yeast fitness is no more than 0.5. Then G6C A21U C61G A69C, with no more than 0.5; and U32G C33G G50A U53G A69G A70C, with no more than 0.5; and U7G A15C U19G C27U A37G U47C, with no more than 0.5. Then A69G, with 0.982; and U8C C46U C61G, with no more than 0.5. As for A15U G17C A45U C49G A57G A65G, the yeast fitness was no more than 0.5. For G6C C30A A45U C55U the value was no more than 0.5.
